# From the supplement of paper PMC6414424
# Where a name gives a salt, the structure may show the parent alone. ± gives the standard deviation of the averaged measurements. This is one part of the list.
# Tested on: APPdp1-6 iPSC-derived neurons
# Experiment: pThr231Tau/total Tau ratio Z-score vs DMSO vehicle wells; higher = more pThr231Tau relative to total Tau
# Settings: 5 µM; treatment time 5 days
row,SMILES,pThr231Tau/total Tau ratio Z-score
1,Oc1ncnc2[nH]ncc12 [Prestw-1213],-1.16 ± 2
2,O=C(O)c1cc(N=Nc2ccc(S(=O)(=O)Nc3ccccn3)cc2)ccc1O [Prestw-520],0.431 ± 0.25
3,CNCCCC1c2ccccc2C=Cc2ccccc21 [Prestw-930],0.0238 ± 0.22
4,CNCCCC1c2ccccc2C=Cc2ccccc21 [Prestw-254],-0.357 ± 0.48
5,CCCCCCC[N+](CC)(CC)CCCCc1ccc(Cl)cc1 [Prestw-319],-4.07 ± 0.33
6,C[C@]12CCC(=O)C=C1CC[C@@H]1[C@@H]2[C@@H](O)C[C@@]2(C)[C@H]1CC[C@]2(O)C(=O)CO [Prestw-447],0.501 ± 1.2
7,C[C@H]1O[C@@H](O[C@H]2[C@@H](O)C[C@H](O[C@H]3[C@@H](O)C[C@H](O[C@H]4CC[C@@]5(C)[C@H](CC[C@@H]6[C@@H]5C[C@@H](O)[C@]5(C)[C@@H](C7=CC(=O)OC7)CC[C@]65O)C4)O[C@@H]3C)O[C@@H]2C)C[C@H](O)[C@@H]1O [Prestw-437],-3.33 ± 0.89
8,CC(C(=O)O)c1ccc(-c2ccccc2)c(F)c1 (stereo not drawn) [Prestw-917],-1.01 ± 0.24
9,O=C(OCC(O)CO)c1ccccc1Nc1ccnc2cc(Cl)ccc12 (stereo not drawn) [Prestw-293],0.817 ± 1.4
10,CN(C)C(=O)C(CCN1CCC(O)(c2ccc(Cl)cc2)CC1)(c1ccccc1)c1ccccc1 [Prestw-144],-0.344 ± 2.1
11,Cc1cccc(C)c1NC(=O)C(C)N (stereo not drawn) [Prestw-1027],-1.14 ± 0.8
12,CCCCc1cc2ccccc2c(OCCN(C)C)n1 [Prestw-630],-0.406 ± 0.53
13,CC(C(=O)O)c1ccc2c(c1)[nH]c1ccc(Cl)cc12 (stereo not drawn) [Prestw-1261],0.196 ± 0.059
14,Oc1c(Cl)cc(Cl)c(Cl)c1Cc1c(O)c(Cl)cc(Cl)c1Cl [Prestw-1472],-4.3 ± 0.54
15,COc1ccc(/C=C/C(=O)Nc2ccccc2C(=O)O)cc1OC [Prestw-1198],-0.649 ± 0.35
16,CCOC(=O)C1=C(COCCN)NC(C)=C(C(=O)OC)C1c1ccccc1Cl (stereo not drawn) [Prestw-1219],0.173 ± 0.19
17,CC(C)CCCCC(=O)N[C@@H](CCN)C(=O)N[C@@H](CN[C@@H](CCN)C(=O)N[C@H]1CCNC(=O)[C@H]([C@@H](C)O)NC(=O)[C@H](CCN)NC(=O)[C@H](CCN)NC(=O)[C@H](CC(C)C)NC(=O)[C@@H](CC(C)C)NC(=O)[C@H](CCN)NC1=O)[C@@H](C)O.CCC(C)CCCCC(=O)N[C@@H](CCN)C(=O)N[C@@H](CN[C@@H](CCN)C(=O)N[C@H]1CCNC(=O)[C@H]([C@@H](C)O)NC(=O)[C@H](CCN)NC(=O)[C@H](CCN)NC(=O)[C@H](CC(C)C)NC(=O)[C@@H](CC(C)C)NC(=O)[C@H](CCN)NC1=O)[C@@H](C)O (stereo partly drawn) [Prestw-486],0.77 ± 0.38

# At a glance, some entries already given.
row,SMILES,pThr231Tau/total Tau ratio Z-score
4,CNCCCC1c2ccccc2C=Cc2ccccc21 [Prestw-254],-0.357 ± 0.48
5,CCCCCCC[N+](CC)(CC)CCCCc1ccc(Cl)cc1 [Prestw-319],-4.07 ± 0.33
6,C[C@]12CCC(=O)C=C1CC[C@@H]1[C@@H]2[C@@H](O)C[C@@]2(C)[C@H]1CC[C@]2(O)C(=O)CO [Prestw-447],0.501 ± 1.2
7,C[C@H]1O[C@@H](O[C@H]2[C@@H](O)C[C@H](O[C@H]3[C@@H](O)C[C@H](O[C@H]4CC[C@@]5(C)[C@H](CC[C@@H]6[C@@H]5C[C@@H](O)[C@]5(C)[C@@H](C7=CC(=O)OC7)CC[C@]65O)C4)O[C@@H]3C)O[C@@H]2C)C[C@H](O)[C@@H]1O [Prestw-437],-3.33 ± 0.89
8,CC(C(=O)O)c1ccc(-c2ccccc2)c(F)c1 (stereo not drawn) [Prestw-917],-1.01 ± 0.24
9,O=C(OCC(O)CO)c1ccccc1Nc1ccnc2cc(Cl)ccc12 (stereo not drawn) [Prestw-293],0.817 ± 1.4
10,CN(C)C(=O)C(CCN1CCC(O)(c2ccc(Cl)cc2)CC1)(c1ccccc1)c1ccccc1 [Prestw-144],-0.344 ± 2.1
11,Cc1cccc(C)c1NC(=O)C(C)N (stereo not drawn) [Prestw-1027],-1.14 ± 0.8

# More records.

row,SMILES,pThr231Tau/total Tau ratio Z-score
1,"CC(C)CCCCC(=O)N[C@@H](CCN)C(=O)N[C@@H](CN[C@@H](CCN)C(=O)N[C@H]1CCNC(=O)[C@H]([C@@H](C)O)NC(=O)[C@H](CCN)NC(=O)[C@H](CCN)NC(=O)[C@H](CC(C)C)NC(=O)[C@@H](CC(C)C)NC(=O)[C@H](CCN)NC1=O)[C@@H](C)O.CCC(C)CCCCC(=O)N[C@@H](CCN)C(=O)N[C@@H](CN[C@@H](CCN)C(=O)N[C@H]1CCNC(=O)[C@H]([C@@H](C)O)NC(=O)[C@H](CCN)NC(=O)[C@H](CCN)NC(=O)[C@H](CC(C)C)NC(=O)[C@@H](CC(C)C)NC(=O)[C@H](CCN)NC1=O)[C@@H](C)O (stereo partly drawn) [COLISTIN SULFATE, antibacterial]",1.77 ± 0.34
2,CN1[C@@H]2CC[C@H]1C[C@@H](OC(=O)c1c[nH]c3ccccc13)C2 [Prestw-461],-0.53 ± 0.97
3,COc1ccccc1OCC(O)CO (stereo not drawn) [Prestw-776],0.0745 ± 0.53
4,NC[C@@H]1O[C@H](O[C@H]2[C@@H](O)[C@H](O[C@@H]3[C@@H](O)[C@H](N)C[C@H](N)[C@H]3O[C@H]3O[C@H](CO)[C@@H](O)[C@H](O)[C@H]3N)O[C@@H]2CO)[C@H](N)[C@@H](O)[C@@H]1O [Prestw-867],0.109 ± 0.19
5,"CC[C@]1(O)C[C@H]2CN(CCc3c([nH]c4ccccc34)[C@@](C(=O)OC)(c3cc4c(cc3OC)N(C=O)[C@H]3[C@@](O)(C(=O)OC)[C@H](OC(C)=O)[C@]5(CC)C=CCN6CC[C@]43[C@@H]65)C2)C1 [VINCRISTINE SULFATE, antineoplastic]",-5.1 ± 1.1
6,CC(=O)[C@H]1CC[C@H]2[C@@H]3C=CC4=CC(=O)CC[C@@]4(C)[C@@H]3CC[C@]12C [Prestw-671],0.502 ± 0.65
7,Cc1cc(=O)[nH]c(=S)[nH]1 [METHYLTHIOURACIL    Therap cat:  Antithyroid agent],0.11 ± 0.22
8,CN(C)CCOC(C)(c1ccccc1)c1ccccn1 (stereo not drawn) [Prestw-27],1.51 ± 2.1
9,CC(=O)c1ccc2c(c1)N(CCCN(C)C)c1ccccc1S2 [Prestw-576],0.828 ± 2.7
10,CC(C)(C#N)c1cc(Cn2cncn2)cc(C(C)(C)C#N)c1 [Prestw-1222],1.44 ± 2
11,Oc1c(I)cc(Cl)c2cccnc12 [Prestw-886],-0.387 ± 0.016
12,Nc1ccn([C@H]2CC[C@@H](CO)O2)c(=O)n1 [Prestw-1037],-0.0393 ± 0.056
13,CN(C(=O)C(Cl)Cl)c1ccc(OC(=O)c2ccco2)cc1 [Prestw-903],-0.358 ± 0.28
14,COc1ccc(OC)c(C(O)CNC(=O)CN)c1 (stereo not drawn) [Prestw-191],-0.591 ± 0.47
15,CN(C)CCN1C(=O)c2ccccc2N(C)c2ccccc21 [Prestw-1393],-0.901 ± 0.44
16,CN1CCN(CCCN2c3ccccc3Sc3ccc(C(F)(F)F)cc32)CC1 [Prestw-313],-1.59 ± 0.18
